{"source": "patent US20060166892A1", "about": "“Treatment of cell proliferative disorders with chlorotoxin” (priority 2002, published 2006)", "test_system": "PC3 prostate cancer cells", "assay": "Binding of biotinylated peptides to PC3 cells, HRP-avidin detection", "parameters": "species or system human", "details": "biotinylated 10-mers, FIG. 8 and 9", "protocol": "To identify core binding site sequences of chlorotoxin, twenty-seven overlapping 10-mers derived from SEQ 1) NO: 1 were synthesized, starting from the C-terminus of the peptide as indicated in FIG. 7.\nBinding of the 10-mer peptides to PC3 prostate cancer cells in vitro was measured by incubating cultured PC3 cells with individual peptides. Binding was detected and quantified by incubating the peptide exposed cells with HRP-avidin using a commercial kit according to manufacturer's instructions.\n(SEQ ID NO: 10) sequentially as depicted in Table 5.\nIn order to compare binding of the short scorpion toxins, the regions homologous to peptide 21 of small toxin and probable toxin LQH-8/6 were synthesized and biotinylated for analysis in the chlorotoxin binding assay. (See Table 6 for amino acid sequences of the peptides).", "note": "Some results were stated once for a whole list of compounds, not compound by compound."}
{"substance": "peptide 5: 10-mer, amino acid residues 23-32 of SEQ ID NO: 1, biotin at amino terminus, cysteine replaced with serine (KGRGKCYGPQ; N-terminal biotin; Cys replaced by Ser; Chlorotoxin; listed as Leiurus quinquestriatus)", "values": [{"measurement": "binding of 10-mer peptides to PC3 cells", "result": "bind"}]}
